Values quoted from earlier work in patent publication US9050294B2, “Treatment of neural diseases or conditions” (Royal Institution for the Advancement of Learning/McGill …, priority 2008, dated 2015).
At least one structure is not confirmed: it was looked up by name or label, or the drawing left a doubt.

Tested on: traumatic SCI patients
Conditions: administered within 48 hours of SCI; cited from earlier work

Compound: C[C@H]1C[C@@H]2[C@H]([C@@H](O)C[C@@]3(C)[C@H]2CC[C@]3(O)C(=O)CO)[C@@]2(C)C=CC(=O)C=C12 [MP, methylprednisolone]
- clinical benefit after traumatic SCI: minor clinical benefits
